Drawing on paper PMC4299599, “Quantification of cytosolic interactions identifies Ede1 oligomers as key organizers of endocytosis” (Molecular Systems Biology, 2014), this text covers binding for three molecules.

For assay [1], the target named is T1, Sla1 (S. cerevisiae), P32790.
T1 chain: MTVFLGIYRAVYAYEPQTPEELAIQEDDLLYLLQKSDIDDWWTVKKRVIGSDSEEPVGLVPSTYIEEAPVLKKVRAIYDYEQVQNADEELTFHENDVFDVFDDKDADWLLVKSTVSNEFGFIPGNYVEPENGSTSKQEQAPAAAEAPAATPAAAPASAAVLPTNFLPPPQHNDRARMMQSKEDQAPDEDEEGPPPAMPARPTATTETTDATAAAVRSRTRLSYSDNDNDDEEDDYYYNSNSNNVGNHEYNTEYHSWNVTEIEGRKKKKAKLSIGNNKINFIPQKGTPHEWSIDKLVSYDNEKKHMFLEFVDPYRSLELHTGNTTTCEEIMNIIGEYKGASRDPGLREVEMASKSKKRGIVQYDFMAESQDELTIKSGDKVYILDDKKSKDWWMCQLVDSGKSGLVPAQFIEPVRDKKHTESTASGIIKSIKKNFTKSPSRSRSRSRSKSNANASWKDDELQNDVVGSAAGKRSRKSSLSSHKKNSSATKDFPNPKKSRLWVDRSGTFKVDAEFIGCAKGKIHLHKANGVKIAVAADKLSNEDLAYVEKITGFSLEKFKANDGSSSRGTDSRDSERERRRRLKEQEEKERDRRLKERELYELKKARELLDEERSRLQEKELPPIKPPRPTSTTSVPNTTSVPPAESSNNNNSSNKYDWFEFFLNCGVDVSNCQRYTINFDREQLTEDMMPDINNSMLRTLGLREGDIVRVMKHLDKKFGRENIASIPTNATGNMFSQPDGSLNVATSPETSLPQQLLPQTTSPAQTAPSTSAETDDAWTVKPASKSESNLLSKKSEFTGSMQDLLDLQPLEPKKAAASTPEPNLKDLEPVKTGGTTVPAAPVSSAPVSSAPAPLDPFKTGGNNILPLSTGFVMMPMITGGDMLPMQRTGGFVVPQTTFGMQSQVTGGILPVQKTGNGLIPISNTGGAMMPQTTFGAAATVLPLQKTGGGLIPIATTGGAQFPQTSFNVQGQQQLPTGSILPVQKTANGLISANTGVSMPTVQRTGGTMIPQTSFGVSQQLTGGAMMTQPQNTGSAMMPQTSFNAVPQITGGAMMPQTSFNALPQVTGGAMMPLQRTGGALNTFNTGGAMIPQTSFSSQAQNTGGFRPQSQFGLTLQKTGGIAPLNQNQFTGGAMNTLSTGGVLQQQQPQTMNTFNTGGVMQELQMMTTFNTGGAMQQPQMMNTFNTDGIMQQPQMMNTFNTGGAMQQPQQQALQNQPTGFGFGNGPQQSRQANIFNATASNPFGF
The experiment in a line: condition: 1000 nM (only Kdeff-values < 1000 nM are shown); fluorescence cross-correlation spectroscopy (FCCS); in the cytoplasm of living yeast cells; first-named protein green (3myeGFP or 1myeGFP; eGFP for Don1), second red (3mCherry); self-interaction in diploid strains with one allele of each colour; apparent or effective KD (Kdeff) from single-cell measurements; only Kdeff values < 1000 nM are shown; values for …. To be noted: remark: other sources report otherwise.

In assay [2] the target is T2, Ede1 (S. cerevisiae) (UniProt P34216).
T2 sequence: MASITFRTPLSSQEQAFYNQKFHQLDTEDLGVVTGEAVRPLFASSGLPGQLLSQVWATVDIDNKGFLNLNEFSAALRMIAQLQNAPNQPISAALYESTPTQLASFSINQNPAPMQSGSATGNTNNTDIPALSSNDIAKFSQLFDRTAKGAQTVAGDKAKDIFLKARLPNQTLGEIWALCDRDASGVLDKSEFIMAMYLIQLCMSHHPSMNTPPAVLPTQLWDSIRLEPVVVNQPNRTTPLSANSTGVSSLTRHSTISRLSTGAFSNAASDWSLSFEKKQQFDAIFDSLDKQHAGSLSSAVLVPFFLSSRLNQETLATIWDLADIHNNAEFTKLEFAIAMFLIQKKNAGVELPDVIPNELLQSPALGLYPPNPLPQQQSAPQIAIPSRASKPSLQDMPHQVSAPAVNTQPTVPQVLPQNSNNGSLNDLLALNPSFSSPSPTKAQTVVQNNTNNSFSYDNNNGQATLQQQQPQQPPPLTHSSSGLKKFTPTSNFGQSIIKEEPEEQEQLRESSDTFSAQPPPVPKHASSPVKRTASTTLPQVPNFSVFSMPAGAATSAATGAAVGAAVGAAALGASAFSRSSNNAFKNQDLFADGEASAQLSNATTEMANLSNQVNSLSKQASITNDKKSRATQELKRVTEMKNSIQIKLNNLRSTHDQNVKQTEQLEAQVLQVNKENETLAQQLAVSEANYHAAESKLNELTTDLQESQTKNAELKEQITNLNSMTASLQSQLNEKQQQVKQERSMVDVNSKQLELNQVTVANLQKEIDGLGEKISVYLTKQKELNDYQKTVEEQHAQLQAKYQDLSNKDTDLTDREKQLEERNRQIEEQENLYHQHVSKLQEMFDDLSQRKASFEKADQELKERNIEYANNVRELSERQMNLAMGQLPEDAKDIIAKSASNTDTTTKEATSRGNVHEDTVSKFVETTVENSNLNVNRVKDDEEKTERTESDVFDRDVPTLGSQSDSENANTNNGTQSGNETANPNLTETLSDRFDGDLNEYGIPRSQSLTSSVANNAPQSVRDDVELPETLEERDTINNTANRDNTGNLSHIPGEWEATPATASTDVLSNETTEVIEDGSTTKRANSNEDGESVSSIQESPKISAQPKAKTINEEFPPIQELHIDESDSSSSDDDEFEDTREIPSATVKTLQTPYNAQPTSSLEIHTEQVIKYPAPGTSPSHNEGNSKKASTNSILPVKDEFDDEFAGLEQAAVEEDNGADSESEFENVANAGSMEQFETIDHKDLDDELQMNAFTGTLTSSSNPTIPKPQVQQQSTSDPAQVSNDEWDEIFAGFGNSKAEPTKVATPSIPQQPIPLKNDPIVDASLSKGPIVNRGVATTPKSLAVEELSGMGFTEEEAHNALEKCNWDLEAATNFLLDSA
As to the kind of experiment: condition: 1000 nM (only Kdeff-values < 1000 nM are shown); fluorescence cross-correlation spectroscopy (FCCS); in the cytoplasm of living yeast cells; first-named protein green (3myeGFP or 1myeGFP; eGFP for Don1), second red (3mCherry); self-interaction in diploid strains with one allele of each colour; apparent or effective KD (Kdeff) from single-cell measurements; only Kdeff values < 1000 nM are shown; values for self-interactions are upper limits.

Results are given in words; binding and its absence hold for the method and conditions named.

B1: Sla2, P33338 1-968 (protein)
chain: MSRIDSDLQKALKKACSVEETAPKRKHVRACIVYTWDHQSSKAVFTTLKTLPLANDEVQLFKMLIVLHKIIQEGHPSALAEAIRDRDWIRSLGRVHSGGSSYSKLIREYVRYLVLKLDFHAHHRGFNNGTFEYEEYVSLVSVSDPDEGYETILDLMSLQDSLDEFSQIIFASIQSERRNTECKISALIPLIAESYGIYKFITSMLRAMHRQLNDAEGDAALQPLKERYELQHARLFEFYADCSSVKYLTTLVTIPKLPVDAPDVFLINDVDESKEIKFKKREPSVTPARTPARTPTPTPPVVAEPAISPRPVSQRTTSTPTGYLQTMPTGATTGMMIPTATGAANAIFPQATAQMQPDFWANQQAQFANEQNRLEQERVQQLQQQQAQQELFQQQLQKAQQDMMNMQLQQQNQHQNDLIALTNQYEKDQALLQQYDQRVQQLESEITTMDSTASKQLANKDEQLTALQDQLDVWERKYESLAKLYSQLRQEHLNLLPRFKKLQLKVNSAQESIQKKEQLEHKLKQKDLQMAELVKDRDRARLELERSINNAEADSAAATAAAETMTQDKMNPILDAILESGINTIQESVYNLDSPLSWSGPLTPPTFLLSLLESTSENATEFATSFNNLIVDGLAHGDQTEVIHCVSDFSTSMATLVTNSKAYAVTTLPQEQSDQILTLVKRCAREAQYFFEDLMSENLNQVGDEEKTDIVINANVDMQEKLQELSLAIEPLLNIQSVKSNKETNPHSELVATADKIVKSSEHLRVDVPKPLLSLALMIIDAVVALVKAAIQCQNEIATTTSIPLNQFYLKNSRWTEGLISAAKAVAGATNVLITTASKLITSEDNENTSPEQFIVASKEVAASTIQLVAASRVKTSIHSKAQDKLEHCSKDVTDACRSLGNHVMGMIEDDHSTSQQQQPLDFTSEHTLKTAEMEQQVEILKLEQSLSNARKRLGEIRRHAYYNQDDD
B1: in assay [1], the binding result is “no binding”.

B2: Yap1801 (protein, UniProt P38856 1-637)
chain: MTTYFKLVKGATKIKSAPPKQKYLDPILLGTSNEEDFYEIVKGLDSRINDTAWTIVYKSLLVVHLMIREGSKDVALRYYSRNLEFFDIENIRGSNGSASGDMRALDRYDNYLKVRCREFGKIKKDYVRDGYRTLKLNSGNYGSSRNKQHSINIALDHVESLEVQIQALIKNKYTQYDLSNELIIFGFKLLIQDLLALYNALNEGIITLLESFFELSHHNAERTLDLYKTFVDLTEHVVRYLKSGKTAGLKIPVIKHITTKLVRSLEEHLIEDDKTHNTFVPVDSSQGSAGAVVAKSTAQERLEQIREQKRILEAQLKNEQVAISPALTTVTAAQSYNPFGTDSSMHTNIPMAVANQTQQIANNPFVSQTQPQVMNTPTAHTEPANLNVPEYAAVQHTVNFNPVQDAGVSAQQTGYYSINNHLTPTFTGAGFGGYSVSQDTTAASNQQVSHSQTGSNNPFALHNAATIATGNPAHENVLNNPFSRPNFDEQNTNMPLQQQIISNPFQNQTYNQQQFQQQKMPLSSINSVMTTPTSMQGSMNIPQRFDKMEFQAHYTQNHLQQQQQQQQQQQQQQQQQPQQGYYVPATAGANPVTNITGTVQPQNFPFYPQQQPQPEQSQTQQPVLGNQYANNLNLIDM
As to B2, the binding entry in assay [2] is recorded as “no binding”.

B3: Ent1 (protein, UniProt Q12518 1-454)
chain: MSKQFVRSAKNLVKGYSSTQVLVRNATSNDNHQVSKDSLIELAEKSYDSADFFEIMDMLDKRLNDKGKYWRHIAKALTVIDYLIRFGSENCVLWCRENLYIIKTLKEFRHEDDEGIDQGQIVRVKAKELTALLSDDERLNEERNMNIKGRNRKGRRRRGTGRSDENDDDLQRAISASRLTAEEDERRRKQDEDYETALQLSKEEEELKRLQDLQRMQQQQGQQQLQQPMYYDIFGNPITPEEYAQFQLQQQQQQQQQQLQQQPMYYDVFGNPITPEELAQFQQQQQLQEQQYLASMQQQQQAMSNNPFAKSEQSSSSPKRNQLVAASSPQQLQQQKQQEPLIQNRTGNQSMTDKYSKLNELLATGTGIDTFGNVGEARIPAQHTKTGTFINSQGTGYRQVSDDPNHNPFLNSQYTGLPSTSVVPTQTGYGFGNQSQQQSQNNGSNNRGYTLIDL
For the molecule B3, the binding result in assay [2] was “no binding”.
